Reference: article PMC10645070

By UniProt entry, the sequences of proteins in these tests, tags left out.
UniProt P08050: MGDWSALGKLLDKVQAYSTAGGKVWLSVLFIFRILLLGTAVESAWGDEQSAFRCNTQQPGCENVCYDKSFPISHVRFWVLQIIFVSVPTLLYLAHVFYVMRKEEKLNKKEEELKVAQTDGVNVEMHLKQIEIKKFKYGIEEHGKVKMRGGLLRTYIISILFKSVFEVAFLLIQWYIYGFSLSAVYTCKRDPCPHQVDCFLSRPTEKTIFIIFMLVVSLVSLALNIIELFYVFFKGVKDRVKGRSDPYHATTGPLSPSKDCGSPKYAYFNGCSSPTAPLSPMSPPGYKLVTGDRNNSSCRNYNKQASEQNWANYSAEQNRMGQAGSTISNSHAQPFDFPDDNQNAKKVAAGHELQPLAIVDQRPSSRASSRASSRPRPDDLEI
UniProt P67809: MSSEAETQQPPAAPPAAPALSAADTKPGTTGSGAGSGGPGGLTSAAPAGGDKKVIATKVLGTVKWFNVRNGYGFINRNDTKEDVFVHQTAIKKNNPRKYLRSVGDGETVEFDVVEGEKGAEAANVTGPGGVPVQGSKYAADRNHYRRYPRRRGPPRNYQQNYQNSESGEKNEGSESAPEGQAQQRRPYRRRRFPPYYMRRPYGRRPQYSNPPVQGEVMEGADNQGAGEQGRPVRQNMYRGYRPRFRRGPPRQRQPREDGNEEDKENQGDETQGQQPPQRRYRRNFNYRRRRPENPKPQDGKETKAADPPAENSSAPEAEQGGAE

What was measured:
[1] = target: Connexin43 (Cx43) of rat origin, stably expressed in HEK293 cells (HEK293^Cx43+) (rat) (UniProt P08050); test: affinity purification with mass spectrometry; IP of Cx43 from 3 mg purified nuclear lysate, on-bead trypsin digestion, LC-MS/MS, compared with negative control samples (t-test, FDR = 0.01, S0 = 1)
[2] = target: Connexin43 (Cx43) of rat origin, stably expressed in HEK293 cells (HEK293^Cx43+) (rat) (UniProt P08050); test: as above; remark: listed apart in the source

Row | binding [1] | binding [2] | Molecule
1 | binds |  | Y-box-binding protein 1 (YBX1), endogenous (from UniProt P67809 1-324)
2 |  | binds | Ca2+-regulated heat stable protein 1 (CARHSP1) (protein, UniProt Q9Y2V2 1-147) MSSEPPPPPQPPTHQASVGLLDTPRSRERSPSPLRGNVVPSPLPTRRTRTFSATVRASQGPVYKGVCKCFCRSKGHGFITPADGGPDIFLHISDVEGEYVPVEGDEVTYKMCSIPPKNEKLQAVEVVITHLAPGTKHETWSGHVISS
3 |  | binds | SNW domain-containing protein 1 (SNW1) (protein, UniProt Q13573 1-536) MALTSFLPAPTQLSQDQLEAEEKARSQRSRQTSLVSSRREPPPYGYRKGWIPRLLEDFGDGGAFPEIHVAQYPLDMGRKKKMSNALAIQVDSEGKIKYDAIARQGQSKDKVIYSKYTDLVPKEVMNADDPDLQRPDEEAIKEITEKTRVALEKSVSQKVAAAMPVRAADKLAPAQYIRYTPSQQGVAFNSGAKQRVIRMVEMQKDPMEPPRFKINKKIPRGPPSPPAPVMHSPSRKMTVKEQQEWKIPPCISNWKNAKGYTIPLDKRLAADGRGLQTVHINENFAKLAEALYIADRKAREAVEMRAQVERKMAQKEKEKHEEKLREMAQKARERRAGIKTHVEKEDGEARERDEIRHDRRKERQHDRNLSRAAPDKRSKLQRNENRDISEVIALGVPNPRTSNEVQYDQRLFNQSKGMDSGFAGGEDEIYNVYDQAWRGGKDMAQSIYRPSKNLDKDMYGDDLEARIKTNRFVPDKEFSGSDRRQRGREGPVQFEEDPFGLDKFLEEAKQHGGSKRPSDSSRPKEHEHEGKKRRKE
4 |  | binds | myelin expression factor 2 (MYEF2) (protein, UniProt Q9P2K5 1-600) MADANKAEVPGATGGDSPHLQPAEPPGEPRREPHPAEAEKQQPQHSSSSNGVKMENDESAKEEKSDLKEKSTGSKKANRFHPYSKDKNSGAGEKKGPNRNRVFISNIPYDMKWQAIKDLMREKVGEVTYVELFKDAEGKSRGCGVVEFKDEEFVKKALETMNKYDLSGRPLNIKEDPDGENARRALQRTGGSFPGGHVPDMGSGLMNLPPSILNNPNIPPEVISNLQAGRLGSTIFVANLDFKVGWKKLKEVFSIAGTVKRADIKEDKDGKSRGMGTVTFEQAIEAVQAISMFNGQFLFDRPMHVKMDDKSVPHEEYRSHDGKTPQLPRGLGGIGMGLGPGGQPISASQLNIGGVMGNLGPGGMGMDGPGFGGMNRIGGGIGFGGLEAMNSMGGFGGVGRMGELYRGAMTSSMERDFGRGDIGINQGFGDSFGRLGSAMIGGFAGRIGSSNMGPVGSGISGGMGSMNSVTGGMGMGLDRMSSSFDRMGPGIGAILERSIDMDRGFLSGPMGSGMRERIGSKGNQIFVRNLPFDLTWQKLKEKFSQCGHVMFAEIKMENGKSKGCGTVRFDSPESAEKACRIMNGIKISGREIDVRLDRNA

Like-named read-outs stand apart in the source and are kept apart here. These are yes or no findings as the source states them, for the method shown. In cells and extracts the contact can be indirect. A yes stands for co-enrichment or nearness to the bait. Other partners may have been found.
